In publication doi:10.64898/2025.12.03.692074:
No constants are given. Whether binding was seen depends on the method and setting. Binding seen in cells or lysates may run through a third protein. Here binding means that the protein was enriched with, or labelled near, the bait; the list need not be complete. Tags and fused reporters may be left off the sequences shown.

B1: 26S proteasome non-ATPase regulatory subunit 9 (PSMD9) (protein, UniProt O00233 1-223)
chain: MSDEEARQSGGSSQAGVVTVSDVQELMRRKEEIEAQIKANYDVLESQKGIGMNEPLVDCEGYPRSDVDLYQVRTARHNIICLQNDHKAVMKQVEEALHQLHARDKEKQARDMAEAHKEAMSRKLGQSESQGPPRAFAKVNSISPGSPASIAGLQVDDEIVEFGSVNTQNFQSLHNIGSVVQHSEGKPLNVTVIRRGEKHQLRLVPTRWAGKGLLGCNIIPLQR
B2: TRIM8 (protein, UniProt Q9BZR9 1-551)
chain: MAENWKNCFEEELICPICLHVFVEPVQLPCKHNFCRGCIGEAWAKDSGLVRCPECNQAYNQKPGLEKNLKLTNIVEKFNALHVEKPPAALHCVFCRRGPPLPAQKVCLRCEAPCCQSHVQTHLQQPSTARGHLLVEADDVRAWSCPQHNAYRLYHCEAEQVAVCQYCCYYSGAHQGHSVCDVEIRRNEIRKMLMKQQDRLEEREQDIEDQLYKLESDKRLVEEKVNQLKEEVRLQYEKLHQLLDEDLRQTVEVLDKAQAKFCSENAAQALHLGERMQEAKKLLGSLQLLFDKTEDVSFMKNTKSVKILMDRTQTCTSSSLSPTKIGHLNSKLFLNEVAKKEKQLRKMLEGPFSTPVPFLQSVPLYPCGVSSSGAEKRKHSTAFPEASFLETSSGPVGGQYGAAGTASGEGQSGQPLGPCSSTQHLVALPGGAQPVHSSPVFPPSQYPNGSAAQQPMLPQYGGRKILVCSVDNCYCSSVANHGGHQPYPRSGHFPWTVPSQEYSHPLPPTPSVPQSLPSLAVRDWLDASQQPGHQDFYRVYGQPSTKHYVTS

Biological target: T1, FLAG-miP-FERMT3 (human)
T1 sequence: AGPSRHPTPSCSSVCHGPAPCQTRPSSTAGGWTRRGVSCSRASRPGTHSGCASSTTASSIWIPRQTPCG
Test: affinity purification with mass spectrometry

| Binder | binding |
| --- | --- |
| B1 | binds |
| B2 | binds |
